# In patent US11952385B1, “12-bromo-2,16-dioxa-9,9,18,18-tetramethylpentacyclo[7.7.5.0 1, 21.0 3,8.0 10,15]henicosa3(8),10,12,14-tetraene-7,20-dione as an antimicrobial compound” (KING FAISAL UNIVERSITY, priority 2023, dated 2024):
# For at least one compound, name, drawing or mass did not settle the structure.
# Columns and labels:
# Format in all cases: cell-based
# [1] = tested on: Staphylococcus aureus; test: Antimicrobial activity by agar dilution, St. Aereus
# Method: (§1) The antibacterial properties of the synthesized compound (12-bromo-2,16-dioxa-9,9,18,18-tetramethylpentacyclo[7.7.5.0^1,21.0^3,8.0^10,15]henicosa3(8),10,12,14-tetraene-7,20-dione) were studied by the method of agar dilution. Test solutions of each compound was prepared in concentration of 1% using dimethylformamide as a solvent. Then they were diluted in physiological solution to obtain the final experimental dilutions of 1:100, 1:200, 1:400, and 1:800. The effect of these substances were compared with furacillin in a controllable study. The testing microbes used were gram positive bacteria Staphylococcus aureus, gram negative bacteria Pseudomonas aeruginosa, Escherichia coli, and Candida albicans fungus. The experiments used for this survey were meat-pentonlu agar (EPA) for cultivation of bacteria and Saburo environment for fungi. Each experiment used 1 mL of test solution on each plate for 500 minutes. Two drops of emulsified with microbes feel were added. All experimental samples were taken from the agar after 10, 20, 40, 60 minutes in the environment on the basis of Patrk planted. Bacteria were cultivated at a temperature of 37° C. for 1 day and the mushroom was kept in a thermostat for 2 hours at a temperature of 28° C. Then results were checked. Those of control and the antimicrobial activity for the synthesized compounds are listed in Table 1 below, with furacillin serving as a reference.
# [2] = tested on: Pseudomonas aeruginosa; test: Antimicrobial activity by agar dilution, Ps. aeruginosa
# Method: as §1
# [3] = tested on: Candida albicans; test: Antimicrobial (antifungal) activity by agar dilution, Candida albicans
# Method: as §1
# [4] = tested on: Escherichia coli; test: Antimicrobial activity by agar dilution, E. Coli
# Method: as §1
# [5] = dilution rate 1:100, exposure time 10 min
# [6] = dilution rate 1:100, exposure time 20 min
# [7] = dilution rate 1:100, exposure time 40 min
# [8] = dilution rate 1:100, exposure time 60 min
# [9] = dilution rate 1:200, exposure time 10 min
# [10] = dilution rate 1:200, exposure time 20 min
# [11] = dilution rate 1:200, exposure time 40 min
# [12] = dilution rate 1:200, exposure time 60 min
# [13] = dilution rate 1:400, exposure time 10 min
# [14] = dilution rate 1:400, exposure time 20 min
# [15] = dilution rate 1:400, exposure time 40 min
# [16] = dilution rate 1:400, exposure time 60 min
# [17] = dilution rate 1:800, exposure time 10 min
# [18] = dilution rate 1:800, exposure time 20 min
# [19] = dilution rate 1:800, exposure time 40 min
# [20] = dilution rate 1:800, exposure time 60 min
smiles,measurement,setting,value
NC(=O)N/N=C/c1ccc([N+](=O)[O-])o1 [Furacilin],antimicrobial activity,[1]; [5],−
same,antimicrobial activity,[1]; [6],−
same,antimicrobial activity,[1]; [7],−
same,antimicrobial activity,[1]; [8],−
same,antimicrobial activity,[1]; [9],+
same,antimicrobial activity,[1]; [10],+
same,antimicrobial activity,[1]; [11],+
same,antimicrobial activity,[1]; [12],+
same,antimicrobial activity,[1]; [13],+
same,antimicrobial activity,[1]; [14],+
same,antimicrobial activity,[1]; [15],+
same,antimicrobial activity,[1]; [16],+
same,antimicrobial activity,[1]; [17],+
same,antimicrobial activity,[1]; [18],+
same,antimicrobial activity,[1]; [19],+
same,antimicrobial activity,[1]; [20],+
same,antimicrobial activity,[2]; [5],+
same,antimicrobial activity,[2]; [6],+
same,antimicrobial activity,[2]; [7],+
same,antimicrobial activity,[2]; [8],+
same,antimicrobial activity,[2]; [9],+
same,antimicrobial activity,[2]; [10],+
same,antimicrobial activity,[2]; [11],+
same,antimicrobial activity,[2]; [12],+
same,antimicrobial activity,[2]; [13],+
same,antimicrobial activity,[2]; [14],+
same,antimicrobial activity,[2]; [15],+
same,antimicrobial activity,[2]; [16],+
same,antimicrobial activity,[2]; [17],+
same,antimicrobial activity,[2]; [18],+
same,antimicrobial activity,[2]; [19],+
same,antimicrobial activity,[2]; [20],+
same,antimicrobial activity,[3]; [5],−
same,antimicrobial activity,[3]; [6],−
same,antimicrobial activity,[3]; [7],+
same,antimicrobial activity,[3]; [8],+
same,antimicrobial activity,[3]; [9],+
same,antimicrobial activity,[3]; [10],+
same,antimicrobial activity,[3]; [11],+
same,antimicrobial activity,[3]; [12],+
same,antimicrobial activity,[3]; [13],+
same,antimicrobial activity,[3]; [14],+
same,antimicrobial activity,[3]; [15],+
same,antimicrobial activity,[3]; [16],+
same,antimicrobial activity,[3]; [17],+
same,antimicrobial activity,[3]; [18],+
same,antimicrobial activity,[3]; [19],+
same,antimicrobial activity,[3]; [20],+
same,antimicrobial activity,[4]; [5],−
same,antimicrobial activity,[4]; [6],−
same,antimicrobial activity,[4]; [7],−
same,antimicrobial activity,[4]; [8],−
same,antimicrobial activity,[4]; [9],+
same,antimicrobial activity,[4]; [10],+
same,antimicrobial activity,[4]; [11],+
same,antimicrobial activity,[4]; [12],+
same,antimicrobial activity,[4]; [13],+
same,antimicrobial activity,[4]; [14],+
same,antimicrobial activity,[4]; [15],+
same,antimicrobial activity,[4]; [16],+
same,antimicrobial activity,[4]; [17],+
same,antimicrobial activity,[4]; [18],+
same,antimicrobial activity,[4]; [19],+
same,antimicrobial activity,[4]; [20],+
